Assay results taken from PMC9112550, “Optimization of the antimicrobial peptide Bac7 by deep mutational scanning” (BMC Biology, 2022).

System: E. coli TOP10
Experiment: Deep mutational scanning, epPCR (randomly mutagenized) Bac7_1-23 library, intracellular self-screening with NGS
Format: cell-based
Conditions: epPCR library, 601,551 variants; rank 1 = most active; qualitative measure

## RRIRPRSPTLPRPRPHPLPFTRP [epPCR library peptide ID 379325]
  Rank by antimicrobial activity: 1

## RRIRPRPTRLPRPRLRPLSFPRP [epPCR library peptide ID 355853]
  Rank by antimicrobial activity: 5
